# Reference: PMC7819943, “Rice protein-binding microarrays: a tool to detect cis-acting elements near promoter regions in rice”
# By UniProt entry, the sequences of proteins in these tests, tags left out.
# UniProt Q0JBA9, entry or part of it: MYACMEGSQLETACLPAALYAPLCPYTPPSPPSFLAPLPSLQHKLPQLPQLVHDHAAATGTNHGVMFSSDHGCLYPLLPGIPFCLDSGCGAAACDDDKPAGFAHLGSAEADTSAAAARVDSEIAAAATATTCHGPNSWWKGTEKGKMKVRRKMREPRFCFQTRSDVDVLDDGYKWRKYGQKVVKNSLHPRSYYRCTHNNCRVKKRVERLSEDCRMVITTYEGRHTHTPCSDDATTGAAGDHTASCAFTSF
# Some of the results follow.
# Molecular target: OsWRKY34 (Oryza sativa, UniProt Q0JBA9 1-250)
# Test: protein-binding microarray (RPBM); PBS, 2% BSA, 51.3 ng/ul salmon testes DNA, 50 uM zinc acetate, 200 nM TF, 25 C, 1 h; high values mean tight binding
# Conditions: protein: recombinant; tags: N-terminal polyhistidine and DsRed monomer fusion (pET32a); label: CyDye5-dUTP incorporated in the synthesized complementary strand; 3' TTTTT single-stranded linker to array surface; dsDNA, one strand shown
# Method in brief: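 Transcription factors were each fused at the N-terminus to a polyhistidine tag plus DsRed and expressed in E. coli BL21-CodonPlus before Ni–NTA purification. Binding to a double-stranded custom Agilent array was carried out with 200 nM protein at 25 °C for 1 h in PBS, 2% BSA, salmon testes DNA and 50 µM zinc acetate. The binding signal is per-feature fluorescence intensity, in arbitrary units, on an Axon 4000B scanner.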
row,Sequence,binding signal
1,GTGGTGGGGAAAGGATAGGGATAAAACTTTGATATTTTTTCGGAGTCACCTAGTGCAG,8760 fluorescence intensity (a.u.)
2,AAGTTGACCAAAAGTCTTCACCTAGTCGTCGTCTTCCCTCCGGAGTCACCTAGTGCAG,12000 fluorescence intensity (a.u.)
3,TGCAATGTCCGCTTTCTATGTAATTCGAGCTACTCCAGGTCGGAGTCACCTAGTGCAG,8270 fluorescence intensity (a.u.)
4,ATCATGCAATAATACAAGTTTCGTTTTGCGTCCTCCCGAACGGAGTCACCTAGTGCAG,8200 fluorescence intensity (a.u.)
5,GCCTCTCGCCTGCAAGCATCATCTGCTTCTCCTCTAACTCCGGAGTCACCTAGTGCAG,8560 fluorescence intensity (a.u.)
6,GGGCTTTCTTCCTAGTAGATGTTAATGGATGTAGATATATCGGAGTCACCTAGTGCAG,12200 fluorescence intensity (a.u.)
7,TTGGCTTCTATTCTTACCCTTCAGATGGTTGTACCTCCCACGGAGTCACCTAGTGCAG,9410 fluorescence intensity (a.u.)
8,GTGCGCTTTGGCCGGAGGCACCGTCGCCGCCTGCTATATCCGGAGTCACCTAGTGCAG,8040 fluorescence intensity (a.u.)
9,TAGTTTAATGTTTCCGTATTTGTTACCGGTTTCCGATCTGCGGAGTCACCTAGTGCAG,11400 fluorescence intensity (a.u.)
10,GCCGCCGACCTACTCTGTCACACACACGCTTCCCGAACTCCGGAGTCACCTAGTGCAG,14800 fluorescence intensity (a.u.)
11,TGCACTGGGCTCCCATCTGAATGTCCTTATGCCAACCTCCCGGAGTCACCTAGTGCAG,8520 fluorescence intensity (a.u.)
12,TTTTTTTTTGTTTATTTCGTTTCTCTTCCGTCTTTTTTTTCGGAGTCACCTAGTGCAG,12900 fluorescence intensity (a.u.)
13,CATCTCCTCCGTTTTCCGCGCACATGTTTTTTAAACTGCTCGGAGTCACCTAGTGCAG,10400 fluorescence intensity (a.u.)
14,GCCCAGCACCAGCGCACCGCCACCCCATTTTCTTTTATTCCGGAGTCACCTAGTGCAG,9420 fluorescence intensity (a.u.)
15,CTCTCTCCGTCTCATAATATAAAGGATTTTAAGTTTTTACCGGAGTCACCTAGTGCAG,8100 fluorescence intensity (a.u.)
16,TGCCGTGCACCTCTTTCCTCGCCGCCTAACTCCTCTGCGGCGGAGTCACCTAGTGCAG,11400 fluorescence intensity (a.u.)
17,TTCCTGTGATCCTCTGTACATTAAGTCTCGACGTGGGCCACGGAGTCACCTAGTGCAG,10900 fluorescence intensity (a.u.)
18,GCGTGCCGGGGTTGGGGCTGGCTGTACATACAAATCTTACCGGAGTCACCTAGTGCAG,15200 fluorescence intensity (a.u.)
19,CTGTGCATCTTTTGTTTTTCCTTTTTTTCCACACCCAATCCGGAGTCACCTAGTGCAG,8540 fluorescence intensity (a.u.)
20,AACCCAGCTCTCAAAAGCCCACTGCAACCGCTTAATTACTCGGAGTCACCTAGTGCAG,8350 fluorescence intensity (a.u.)
21,TCCATTCCCGCGCCGGGTTTTGGGGTGGTGTGTTGATGCGCGGAGTCACCTAGTGCAG,10900 fluorescence intensity (a.u.)

# Shown as tab-separated lines: part of the list above.
row	Sequence	binding signal
1	GTGGTGGGGAAAGGATAGGGATAAAACTTTGATATTTTTTCGGAGTCACCTAGTGCAG	8760 fluorescence intensity (a.u.)
2	AAGTTGACCAAAAGTCTTCACCTAGTCGTCGTCTTCCCTCCGGAGTCACCTAGTGCAG	12000 fluorescence intensity (a.u.)

# Later entries.

row,Sequence,binding signal
1,GTCGTTGTGTGCGTGCATGGCACTGTTGATGTCGAGTATACGGAGTCACCTAGTGCAG,8370 fluorescence intensity (a.u.)
2,CAGGCCGCTACTACCACCAAACCCCATTTCGTTCATTTCACGGAGTCACCTAGTGCAG,9530 fluorescence intensity (a.u.)
3,CCATCTTAACGCGCCGCGTCCACCCGAGCCGGTTTCTGTACGGAGTCACCTAGTGCAG,9440 fluorescence intensity (a.u.)
4,ATAGTGCCAAGTCAAACATTTTTAGCTTTGATTATTAATACGGAGTCACCTAGTGCAG,11300 fluorescence intensity (a.u.)
5,ATTTTCTTCCCATGGCTGCCTCCACGACGCCCGCGCCTTCCGGAGTCACCTAGTGCAG,11600 fluorescence intensity (a.u.)
6,GGTGCAGCGGTGGTGGCGTTGGGGTGGGCATGGCGGCTCGCGGAGTCACCTAGTGCAG,13100 fluorescence intensity (a.u.)
7,TTACTTTGTTGATTCTTTCCTTTGTTTTTTTTTTCTTTTCCGGAGTCACCTAGTGCAG,8510 fluorescence intensity (a.u.)
8,ATCTGCCCTATCTGGTCCCACCCATCAGTGGCCCACACCTCGGAGTCACCTAGTGCAG,8700 fluorescence intensity (a.u.)
9,GCTAACATCACCACAAACAACACCATTGTTATGCTCTTAACGGAGTCACCTAGTGCAG,8500 fluorescence intensity (a.u.)
10,GATTAGTTCTGTTACTGCATGTACTTTCTTTTATCTATCTCGGAGTCACCTAGTGCAG,9420 fluorescence intensity (a.u.)
11,TTTTCAAATTTGTGTTTTTACCATTTCCCTCTGTCCGTAACGGAGTCACCTAGTGCAG,8800 fluorescence intensity (a.u.)
12,CCCACGCCGCCGCCGCCGCCACGTCCGCCTTTTCCCCGCTCGGAGTCACCTAGTGCAG,8040 fluorescence intensity (a.u.)
13,TCTTTCTAGTATTCTGCATTCCATTTAGGTTTCTTTTCCACGGAGTCACCTAGTGCAG,9360 fluorescence intensity (a.u.)
14,ACCGTGCATTCCAGTGAGGCCCTTATCTTTCTTGTTATAGCGGAGTCACCTAGTGCAG,9600 fluorescence intensity (a.u.)
15,ATCGCGCATCCACTCCACACCACACGCTTCACTGGTTCCGCGGAGTCACCTAGTGCAG,9180 fluorescence intensity (a.u.)
16,AAAACCTCGTTTTTCACGCACACGTTTTCCGAACTTTTCACGGAGTCACCTAGTGCAG,10100 fluorescence intensity (a.u.)
17,GGTGGGGCTGTTAGTTAATTATAATGGCTTAATCCAGAGACGGAGTCACCTAGTGCAG,11800 fluorescence intensity (a.u.)
18,TATATATATATATATATATATATATATGTGTGTGTGTGTTCGGAGTCACCTAGTGCAG,14600 fluorescence intensity (a.u.)
19,AAAGCCTGTGGCCACATCTTATCTTTTCCATCCTTTGCATCGGAGTCACCTAGTGCAG,8040 fluorescence intensity (a.u.)
20,GTGTCACAATTTTTAAAATGTTTCATTTGCTGATTTTTTTCGGAGTCACCTAGTGCAG,8320 fluorescence intensity (a.u.)
21,GTTGTTCTGTACCTTCTTGCTTGTTACCATGGCTGTTATCCGGAGTCACCTAGTGCAG,10500 fluorescence intensity (a.u.)
